This passage reports cell number change and AC50 results from PubChem BioAssay AID2685 (National Center for Advancing Translational Sciences (NCATS), 2010).

This experiment is described as follows: qHTS Assay for Lipid Storage Modulators in Drosophila S3 Cells.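 On cell number change: cells counted by Cell Tracker Red CMTPX staining in the red channel.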 As to conditions: BODIPY lipid droplet fluorescence, 18-24 h; for cell number change: measured here: cell count max response, cells fed with added oleic acid. The method, boiled down:
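Drosophila S3 cells got compounds at several concentrations plus oleic acid (400 uM solution). Laser-scanning cytometry with 488 nm excitation read lipid droplets at 500-530 nm and cells at 575-640 nm. Percent activity was relative to 20 uM Triacsin C.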
(In general: qHTS replaces the single test concentration by a dilution series.)

[1] abbreviates: measured here: lipid fluorescence (Fed channel) AC50, cells fed with added oleic acid.
[2] abbreviates: measured here: cell number channel AC50, cells fed with added oleic acid.

As a reminder, the AC50 is the concentration giving half of the maximal activity seen.

Some of the results follow. These are further read-outs of the screen, such as a control signal, another cell line or another target. No call is given for them. The list favours compounds with an active or inconclusive main result. The note in brackets gives the kind of curve behind each potency; many fits are weak.

In the case of `CCN(c1ccc(OC)cc1)S(=O)(=O)N1CCCC(C(=O)NCc2ccccc2Br)C1` (centres undefined), the cell number change was -29.1%. The AC50 under setting [1] is 29.1 µM [falling, single point].

On to `CSc1ccc(CN(C)C(=O)c2cc(=O)[nH]c3ccccc23)cc1`, for which the cell number change stood at 12.9%. In addition, the AC50 under setting [2] was 0.651 µM [rising, partial curve, poor fit]. Also, under setting [1], the AC50 was 29.1 µM [falling, single point].

For the compound `O=C(NC1CCCCC1)c1cc(-c2ccc(O)cc2)on1`, the cell number change is 28.3%. Further, the AC50 under setting [1] is 0.58 µM [falling, single point].

On to `COc1ccc(Nc2ccnc(Nc3ccc(OC)cc3)n2)cc1`, for which the cell number change is -56.9%. Under setting [2], the AC50 was 29.1 µM [falling, single point].

As for `COc1ccccc1C(=O)NCC(=O)NCCc1ccc(Cl)cc1`, the cell number change was found to be 13.9%. Also, under setting [1], the AC50 is 6.51 µM [rising, single point].

As to `CCOC(=O)/C(C#N)=C\c1cc(C)n(-c2ccccc2)c1C`, the cell number change is -0.636%. Moreover, the AC50 under setting [1] is 0.206 µM [rising, partial curve, poor fit].

Turning to `COc1ccc(OC)c(/C=N/NC(=O)c2cc[n+](Cc3ccccc3)cc2)c1`, the cell number change was -19.2%. Further, under setting [2], the AC50 was 0.116 µM [falling, full curve, poor fit].

Take `O=C1C=C(O)C(n2cncn2)C(c2ccc(F)cc2)C1` (centres undefined): the cell number change turned out to be 3.78%.

As to `Cc1cc(C)c2sc(NC(=O)c3ccc(N4C(=O)CCC4=O)cc3)nc2c1`, the cell number change is 11.1%.

With `CCc1ccc(CN(C)C(=O)C2CCC(=O)N(CC3CCCCC3)C2)cc1` (centres undefined), the cell number change is -11.2%. Besides, under setting [2], the half-maximal activity concentration (AC50) was 5.62 µM [rising, single point].

In the case of `CC(NC(=O)CN(C)S(=O)(=O)c1cccc2nsnc12)c1ccccc1` (centres undefined), the cell number change amounted to 4.58%. Besides, under setting [2], the AC50 is 6.51 µM [rising, partial curve]. Moreover, the AC50 under setting [1] was 6.51 µM [rising, single point].

As to `CCCCNc1ccc(C(CC(N)=O)NC(=O)c2cc(C)cc(C)c2)cc1[N+](=O)[O-]` (centres undefined), the cell number change was 0.898%. Also, under setting [1], the AC50 was 6.51 µM [rising, single point].

As for `CC1(C)CC(=O)C(C=N)=C(O)C1`, the cell number change is -33.1%. The AC50 under setting [2] was 2.59 µM [falling, full curve, poor fit]. Under setting [1], the AC50 is 2.31 µM [falling, full curve, poor fit].

As for `Cc1c(C)n2c(SCC(=O)N3CCCCCC3)nnc2[nH]c1=O`, the cell number change is -17.8%. Under setting [1], the AC50 is 25.9 µM [falling, partial curve, poor fit].

Consider `CCOC(=O)N1CCN(C(=S)NCCOC)CC1`, for which the cell number change is -33%. Besides, the AC50 under setting [2] is 1.16 µM [falling, full curve]. Moreover, the AC50 under setting [1] was 1.46 µM [falling, full curve].

Turning to `CC1=NNC(=O)C1C(c1ccc(Cl)cc1)C(C#N)C#N` (centres undefined), the cell number change is -9.93%. In addition, the AC50 under setting [1] was 6.51 µM [rising, single point].

Turning to `Cc1ccc(S(=O)(=O)N2CCC(C(=O)OCC(=O)N(C)CC(=O)Nc3ccc(F)cc3)CC2)cc1C`, the cell number change was -1%.

Turning to `CCOC(=O)C1Cn2c(nc3c(c2=O)C2(CCCC2)Cc2ccccc2-3)S1` (centres undefined), the cell number change was -29.3%. Also, the AC50 under setting [2] was 1.3 µM [falling, full curve, poor fit]. Further, the AC50 under setting [1] is 0.00461 µM [falling, full curve, poor fit].

Turning to `COCCN(C(=O)c1ccc(COc2ccccc2)o1)c1c(N)n(CC(C)C)c(=O)[nH]c1=O`, the cell number change was -11.3%. Under setting [1], the AC50 was 29.1 µM [falling, single point].

As to `Cc1ccc(N2C(=O)c3ccccc3C2Nc2ccc(S(=O)(=O)N3CCOCC3)cc2)nc1` (centres undefined), the cell number change was -6.97%. Besides, the AC50 under setting [1] is 0.116 µM [rising, full curve, poor fit].

On to `CC(=O)Oc1ccc2c(C)cc(=O)oc2c1`, for which the cell number change was -0.849%. For the same compound, the AC50 under setting [1] was 29.1 µM [falling, single point].

For `COc1cccc(SCc2noc(C(=O)NCc3ccccc3)c2C(=O)NCc2ccccc2)c1`, the cell number change was -4.4%. For the same compound, under setting [1], the AC50 was 6.51 µM [falling, single point].

As to `COc1cccc(N2CCN(S(=O)(=O)c3ccc(CN4C(=O)c5cccnc5C4=O)cc3)CC2)c1`, the cell number change is -5.9%. Under setting [1], the AC50 is 29.1 µM [rising, single point].

In the case of `Cc1ccccc1NC(=O)C1CCCN1S(=O)(=O)c1cccc2cccnc12` (centres undefined), the cell number change is -7.14%. Besides, the AC50 under setting [1] is 0.092 µM [rising, full curve].

As to `O=C(Cn1nnc2c(sc3nc4c(c(-c5ccccc5)c32)CCC4)c1=O)c1ccccc1`, the cell number change was -91.4%. In addition, under setting [2], the AC50 was 29.1 µM [falling, single point].

For the compound `CCOC(=O)Cc1csc(NC(=O)c2cnc3sc(C)cn3c2=O)n1`, the cell number change was found to be 12%. Besides, the AC50 under setting [2] was 2.31 µM [falling, partial curve, poor fit]. For the same compound, under setting [1], the AC50 was 18.4 µM [falling, partial curve].

In the case of `Cc1cccc(N2CCN(C(=O)CSc3nnnn3C3CC3)CC2)c1C`, the cell number change was -40.6%. In addition, under setting [2], the AC50 is 29.1 µM [falling, partial curve]. In addition, under setting [1], the AC50 is 1.46 µM [falling, full curve, poor fit].

Consider `O=C(c1ccc(S(=O)(=O)N2CCC(c3nc4ccccc4[nH]3)CC2)cc1)N1CCOCC1`, for which the AC50 under setting [2] was 0.731 µM [rising, partial curve, poor fit].

Turning to `O=C(CCC(=O)c1ccc(F)cc1)NC1CCCN(Cc2ccccc2F)C1` (centres undefined), the cell number change is -0.88%. Further, the AC50 under setting [1] is 6.51 µM [rising, single point].

Take `Cc1ccc2oc(=O)n(Cc3ccccc3)c2c1`: the cell number change was determined as 17.7%. The AC50 under setting [1] is 29.1 µM [rising, single point].

On to `Cc1cc(Cl)nc(SCC(=O)c2ccccc2)n1`, for which the cell number change is -21.4%. Besides, the AC50 under setting [1] is 0.206 µM [falling, full curve, poor fit].

In the case of `COc1ccc(CN2CCOCC2)cc1`, the cell number change was 2.33%. Besides, under setting [1], the half-maximal activity concentration (AC50) was 0.58 µM [falling, full curve, poor fit].

For `Cc1sc2nc(CN(C(=O)c3cccs3)C3CCCC3)[nH]c(=O)c2c1C`, the cell number change came out at 51.8%. Further, the AC50 under setting [2] is 23.1 µM [rising, single point]. Besides, under setting [1], the AC50 was 5.17 µM [falling, single point].

In the case of `Nn1c(SCC(=O)Nc2nccs2)nncc1=O`, the cell number change was -6.49%. For the same compound, under setting [1], the AC50 is 0.116 µM [falling, full curve].

Regarding `Cc1sc2nc(SCC(=O)N3CCCC3)[nH]c(=O)c2c1C`, the AC50 under setting [1] was 6.51 µM [falling, single point].

For the compound `Cc1ccc(C)c(-n2c3nc(=O)[nH]c(=O)c-3cc3cc([N+](=O)[O-])ccc32)c1`, the cell number change was found to be 0.422%. In addition, the AC50 under setting [1] was 2.59 µM [falling, partial curve].

Consider `CC1CCN(Cc2nnnn2CCCC(=O)N(C)C(C)c2ccccn2)CC1` (centres undefined), for which the cell number change was -8.78%. The AC50 under setting [1] was 4.11 µM [rising, single point].

Take `COc1ccc(Cc2nnc(SC)[nH]c2=O)cc1OC`: the cell number change was 2.73%. In addition, the AC50 under setting [1] was 0.146 µM [falling, full curve, poor fit].

Consider `COc1ccccc1NC(=O)c1ccc(NC(=O)COC(=O)C2(C)CC2(Cl)Cl)cc1` (centres undefined), for which the cell number change was determined as 83.3%. Also, the AC50 under setting [2] is 10.3 µM [rising, partial curve]. The AC50 under setting [1] is 1.46 µM [rising, full curve, poor fit].

Take `FC(F)(F)c1nc(NCC2CCCO2)c2nnn(Cc3ccccc3Cl)c2n1` (centres undefined): the cell number change came to 27.5%. In addition, the AC50 under setting [2] is 0.651 µM [rising, full curve, poor fit].

Take `Cc1ccccc1C(=O)NC(=S)Nc1ccc(S(=O)(=O)N2CCN(C)CC2)cc1`: the cell number change turned out to be 29.9%. The AC50 under setting [2] was 0.326 µM [rising, full curve, poor fit]. Also, the AC50 under setting [1] is 3.66 µM [rising, full curve].

For the compound `CCOc1ccc(S(=O)(=O)NCc2ccncc2)cc1NC(=O)c1ccccc1F`, the cell number change amounted to 8.97%.

For the compound `NC(=O)c1ccc(NC(=O)CCCc2nc(-c3ccccc3Cl)no2)cc1`, the cell number change was 58.7%. In addition, the AC50 under setting [2] is 2.06 µM [rising, full curve]. For the same compound, the AC50 under setting [1] was 2.59 µM [rising, full curve].

`CC(=O)Nc1ccccc1OCC(=O)N(Cc1ccccc1)C(C)C`: the cell number change is -12.7%. Also, the AC50 under setting [1] was 1.16 µM [falling, single point].

Turning to `CCN(CC)S(=O)(=O)c1ccc(N=N/C(C(C)=O)=C(/C)O)cc1`, the AC50 under setting [1] was 3.26 µM [rising, partial curve].

For `COc1cc(C(=O)OCC(=O)NCCC2=CCCCC2)ccc1OCC(C)C`, the cell number change was 7.54%. The AC50 under setting [1] was 0.146 µM [falling, full curve].

Consider `O=C(CN(Cc1ccccc1)C(=O)c1ccco1)NCc1ccc(F)cc1`, for which the cell number change worked out at 45.5%. In addition, under setting [2], the AC50 is 29.1 µM [rising, single point]. In addition, the AC50 under setting [1] was 20.6 µM [rising, partial curve].

For the compound `CCCCCCOC(=O)C(C#N)c1nc2ccccc2nc1N1CCOCC1` (centres undefined), the cell number change is -2.55%. For the same compound, the AC50 under setting [1] is 0.00461 µM [rising, full curve, poor fit].

In the case of `COC(=O)C1=C(C)N(C(C)C)C(=O)C1(NC(=O)C1CCCCC1)C(F)(F)F` (centres undefined), under setting [1], the AC50 is 0.00461 µM [falling, full curve, poor fit].

Turning to `COc1ccccc1CNC(=O)C1CCCN(S(C)(=O)=O)C1` (centres undefined), the cell number change is -51.4%. For the same compound, the AC50 under setting [2] is 29.1 µM [falling, single point]. The AC50 under setting [1] was 29.1 µM [falling, single point].

As for `O=C(Nc1ccc(Cl)c(Cl)c1)c1ccc(Cn2c(=O)[nH]c3ccsc3c2=O)cc1`, the cell number change was -58.1%. For the same compound, the AC50 under setting [2] is 18.4 µM [falling, single point]. Moreover, under setting [1], the AC50 is 16.4 µM [falling, single point].

For `CC(C(=O)Nc1ccc(F)c(F)c1F)N(C)CC(=O)Nc1ccccc1Br` (centres undefined), the cell number change came out at 2.2%.

In the case of `Cn1c(CN2CCCCC2)nc2cc(NC(=O)c3ccccc3)ccc21`, the cell number change came to 163%. Moreover, the AC50 under setting [1] was 29.1 µM [rising, partial curve].

On to `COc1ccc(OCC(=O)Nc2ccc(S(=O)(=O)N3CCCC3)cc2)cc1`, for which the cell number change was found to be 25%.

On to `O=C(c1cccc(Oc2ccccc2)c1)N1CCN(c2ccccn2)CC1`, for which the cell number change was 51.8%. Moreover, the AC50 under setting [2] is 29.1 µM [rising, single point].

Turning to `CC(C)(C)NC(=O)CSc1nnc(-c2ccco2)n1Cc1ccco1`, the cell number change came to 6.82%. The AC50 under setting [1] was 6.51 µM [falling, single point].

On to `CN(Cc1cccc2cnccc12)C(=O)c1cc(COc2ccc(F)cc2F)on1`, for which the cell number change is -39.2%. Under setting [2], the AC50 was 20.6 µM [falling, single point]. Further, under setting [1], the AC50 was 29.1 µM [falling, single point].
